No constants are given. Whether binding was seen depends on the method and setting. In cells and extracts the contact can be indirect. Some binding calls cover weakened binding; strength is not graded here.
Biological target: endogenous Notch1 (human (endogenous in MCF-7)) (UniProt P46531)
Test: proximity ligation; in situ PLA (Duolink) on methanol/acetone-fixed MCF-7 cells, endogenous proteins, primary antibodies to Pim1, Notch1 or CoxII

By UniProt entry, the sequences of proteins in these tests, tags left out. Residues count along the entry.
UniProt P46531, residues 19-2555: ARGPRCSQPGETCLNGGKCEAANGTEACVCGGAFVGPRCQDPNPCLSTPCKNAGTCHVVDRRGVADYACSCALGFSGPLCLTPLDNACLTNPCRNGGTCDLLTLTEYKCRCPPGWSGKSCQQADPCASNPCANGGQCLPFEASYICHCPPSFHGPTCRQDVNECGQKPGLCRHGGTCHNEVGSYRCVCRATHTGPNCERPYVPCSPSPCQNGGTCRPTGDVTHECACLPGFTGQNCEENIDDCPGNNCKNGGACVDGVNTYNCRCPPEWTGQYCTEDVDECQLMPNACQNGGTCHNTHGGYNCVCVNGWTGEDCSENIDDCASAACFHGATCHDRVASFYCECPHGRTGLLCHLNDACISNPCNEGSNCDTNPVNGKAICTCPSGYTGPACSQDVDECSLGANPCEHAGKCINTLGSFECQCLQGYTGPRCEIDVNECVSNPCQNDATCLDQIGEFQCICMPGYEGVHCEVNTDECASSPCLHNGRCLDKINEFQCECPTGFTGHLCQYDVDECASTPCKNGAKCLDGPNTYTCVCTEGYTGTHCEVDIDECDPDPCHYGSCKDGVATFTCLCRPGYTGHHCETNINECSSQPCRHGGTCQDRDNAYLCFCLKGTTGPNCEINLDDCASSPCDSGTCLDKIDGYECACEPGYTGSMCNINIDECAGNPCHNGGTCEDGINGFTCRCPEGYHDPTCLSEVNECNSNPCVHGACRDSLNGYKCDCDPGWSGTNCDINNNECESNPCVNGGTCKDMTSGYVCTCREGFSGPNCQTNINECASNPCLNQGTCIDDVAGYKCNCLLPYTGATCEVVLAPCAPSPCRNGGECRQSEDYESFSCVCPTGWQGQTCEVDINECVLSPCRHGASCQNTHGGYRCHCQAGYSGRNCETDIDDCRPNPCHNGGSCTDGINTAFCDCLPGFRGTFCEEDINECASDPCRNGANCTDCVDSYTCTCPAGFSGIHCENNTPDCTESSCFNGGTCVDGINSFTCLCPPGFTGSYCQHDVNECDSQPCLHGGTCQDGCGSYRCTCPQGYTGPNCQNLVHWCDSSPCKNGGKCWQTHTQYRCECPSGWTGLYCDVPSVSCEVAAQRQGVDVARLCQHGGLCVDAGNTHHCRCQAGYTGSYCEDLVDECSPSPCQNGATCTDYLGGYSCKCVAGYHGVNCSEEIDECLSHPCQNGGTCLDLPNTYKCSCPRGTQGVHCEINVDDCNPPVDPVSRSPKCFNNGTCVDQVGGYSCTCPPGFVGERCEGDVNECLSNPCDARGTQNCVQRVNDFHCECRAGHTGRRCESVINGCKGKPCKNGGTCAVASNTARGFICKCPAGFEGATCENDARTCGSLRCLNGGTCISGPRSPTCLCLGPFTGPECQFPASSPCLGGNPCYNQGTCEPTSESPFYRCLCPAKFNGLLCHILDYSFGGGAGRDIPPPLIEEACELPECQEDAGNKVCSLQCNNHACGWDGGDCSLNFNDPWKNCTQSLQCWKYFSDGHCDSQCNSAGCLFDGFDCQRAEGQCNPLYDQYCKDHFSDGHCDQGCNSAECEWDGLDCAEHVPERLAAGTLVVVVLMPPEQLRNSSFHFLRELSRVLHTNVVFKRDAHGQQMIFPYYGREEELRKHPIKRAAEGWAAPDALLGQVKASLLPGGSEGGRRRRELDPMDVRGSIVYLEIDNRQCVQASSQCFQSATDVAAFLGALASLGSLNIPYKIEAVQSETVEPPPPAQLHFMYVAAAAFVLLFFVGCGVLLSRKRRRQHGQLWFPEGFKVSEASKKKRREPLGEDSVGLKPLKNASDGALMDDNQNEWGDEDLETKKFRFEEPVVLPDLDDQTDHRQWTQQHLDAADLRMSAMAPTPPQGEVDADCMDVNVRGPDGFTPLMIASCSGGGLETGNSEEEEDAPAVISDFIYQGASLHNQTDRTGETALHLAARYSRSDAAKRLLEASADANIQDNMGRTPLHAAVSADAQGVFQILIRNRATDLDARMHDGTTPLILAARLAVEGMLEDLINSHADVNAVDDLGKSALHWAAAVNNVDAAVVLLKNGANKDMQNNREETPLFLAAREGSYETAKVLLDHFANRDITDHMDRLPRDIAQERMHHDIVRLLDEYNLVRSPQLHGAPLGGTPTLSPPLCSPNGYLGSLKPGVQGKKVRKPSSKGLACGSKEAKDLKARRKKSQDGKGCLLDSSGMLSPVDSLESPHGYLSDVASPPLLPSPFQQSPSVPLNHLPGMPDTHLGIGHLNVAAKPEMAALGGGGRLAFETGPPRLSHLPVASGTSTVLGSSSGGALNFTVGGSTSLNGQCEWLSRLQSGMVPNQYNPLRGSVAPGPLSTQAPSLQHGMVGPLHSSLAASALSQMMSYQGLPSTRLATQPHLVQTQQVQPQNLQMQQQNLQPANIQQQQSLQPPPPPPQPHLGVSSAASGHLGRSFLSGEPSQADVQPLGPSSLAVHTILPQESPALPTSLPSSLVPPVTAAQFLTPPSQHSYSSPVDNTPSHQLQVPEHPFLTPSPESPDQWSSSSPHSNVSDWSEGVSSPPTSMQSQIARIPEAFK
UniProt P11309: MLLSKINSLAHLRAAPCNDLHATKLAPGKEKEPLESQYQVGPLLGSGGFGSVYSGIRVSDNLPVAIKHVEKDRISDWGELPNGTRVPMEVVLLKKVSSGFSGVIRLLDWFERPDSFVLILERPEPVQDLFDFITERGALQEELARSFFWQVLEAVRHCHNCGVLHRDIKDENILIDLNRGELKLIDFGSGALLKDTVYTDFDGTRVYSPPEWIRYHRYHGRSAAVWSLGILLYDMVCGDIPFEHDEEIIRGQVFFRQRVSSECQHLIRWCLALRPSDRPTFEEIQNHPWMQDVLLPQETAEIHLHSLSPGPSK

binding: binds
Substance: endogenous Pim1 (from UniProt P11309 1-313) (enzyme)
